From patent publication EP3932936A1, “POLYPEPTIDE HAVING ANTIBACTERIAL ACTIVITY, COMPOSITION FOR PREVENTING OR TREATING SEPSIS COMPRISING SAME, AND ANTIBACTERIAL COMPOSITION” (Dandi Bioscience Inc, priority 2019, dated 2022)
Not every detail of the peptide structures is certain; ends, links or a residue may be inferred. Some entries repeat one wording, which the source may state once for all of them. No end group written: not given here.

Tests used:
[1] = system: three types of gram-positive bacteria (two types of S. aureus and S. epidermidis); assay: Antibacterial activity test (MIC50, MIC100) against gram-positive bacteria; type: cell-based; conditions: compared with melittin
[2] = LTA binding by ITC analysis; parameters: species or system S. aureus
[3] = system: Escherichia coli (ESBL); assay: Sepsis animal model, survival rate (clinical strain); type: in vivo, mice; conditions: 3 mg to 12 mg per kg, intraperitoneal six times at 0-5 hours, observed 3 days; FIG. 4
[4] = system: lipoprotein (LPP); assay: LPP binding by ITC analysis; parameters: species or system S. aureus
[5] = system: Escherichia coli K1; assay: Sepsis animal model, survival rate (standard strain); type: in vivo, mice; conditions: 3 mg to 12 mg per kg, intraperitoneal six times at 0-5 hours, observed 3 days; FIG. 4
[6] = system: carbapenem-resistant Acinetobacter baumannii; assay: Sepsis animal model, survival rate (clinical strain); type: in vivo, mice; conditions: 3 mg to 12 mg per kg, intraperitoneal six times at 0-5 hours, observed 3 days; FIG. 4
[7] = system: IL-6; assay: IL-6 secretion test for bone marrow-derived dendrite cells (BMDCs) stimulated with LPS; type: cell-based; conditions: LPS 30 minutes after peptide treatment, FIG. 5C
[8] = LPS binding affinity (Kd) by Isothermal Titration Calorimeter (ITC); parameters: species or system E. coli K1; conditions: stated in words relative to FP1 (wild type, WT)
Source text: FP1 (ADK 44-54) is denoted by wild type (WT), and peptides in which a point mutation occurred at various sites in WT were manufactured (FP3, FP5, FP6, and FP9). To increase the interaction with LPS in a residue sequence of FP3, peptides were designed based on FP3- and LPS-binding models (FP12-NH2 and FP13-NH2), and peptides were designed by additionally introducing a non-natural amino acid and an amino acid isomer (allomeric D-type amino acid) (allD FP12-NH2, allD FP13-NH2, allD FP-13-9a, allD FP-13-9w, allD FP-13-9k, and allD FP13-NH2 (AcOH)). In addition, an N-terminus PEGylated peptide (PEG-alld FP13-NH2 (AcOH)) was additionally designed, synthesized, and provided by ANYGEN, Co. Ltd. The binding affinity between each of the provided peptides and lipopolysaccharide (LPS) was confirmed through measuring the binding affinity (Kd) using Isothermal Titration Calorimeter (ITC).
Specifically, a method of analyzing binding affinity (Kd) between a peptide and LPS is as follows.
Measurement was carried out using a Malvern MicroCal PEAQ-ITC cell instrument, and the following pretreatment was carried out to confirm interaction with LPS. […]
Before the experiment, LPS and the peptide were previously diluted with PBS, thereby preparing 2 mM LPS and 0.2 mM peptide. […] When the measurement was completed, analysis is performed, and the Kd values of LPS and the peptide were calculated.

CC(C)C[C@@H](NC(=O)[C@H](N)CCCNC(=N)N)C(=O)N[C@H](CCCNC(=N)N)C(=O)N[C@@H](C(=O)N[C@H](CCCCN)C(=O)N[C@H](CC(C)C)C(=O)N[C@H](CCCNC(=N)N)C(=O)N[C@H](CCCNC(=N)N)C(=O)N[C@H](Cc1c[nH]c2ccccc12)C(=O)N[C@H](CC(C)C)C(=O)N[C@H](CCCNC(=N)N)C(N)=O)C(C)C [allD FP21-NH2]
antibacterial activity against gram-positive bacteria [1]: excellent antibacterial activity against gram-positive bacteria at the same level as melittin

CC(C)C[C@@H](NC(=O)[C@H](N)CCCCN)C(=O)N[C@H](CCCNC(=N)N)C(=O)N[C@@H](C(=O)N[C@H](CCCCN)C(=O)N[C@H](CC(C)C)C(=O)N[C@H](CCCNC(=N)N)C(=O)N[C@H](CCCNC(=N)N)C(=O)N[C@H](Cc1ccc(O)cc1)C(=O)N[C@H](CC(C)C)C(=O)N[C@H](CCCNC(=N)N)C(N)=O)C(C)C [allD FP13-NH2]
binding to LTA [2]: binds | survival rate (antibiotic effect) [3]: increase in survival rate | antibacterial activity against gram-positive bacteria [1]: excellent antibacterial activity against gram-positive bacteria at the same level as melittin | binding to LPP [4]: binds | survival rate (antibiotic effect) [5]: increase in survival rate | survival rate (antibiotic effect) [6]: increase in survival rate

CC(C)C[C@@H](NC(=O)[C@H](N)CCCNC(=N)N)C(=O)N[C@H](CCCNC(=N)N)C(=O)N[C@@H](C(=O)N[C@H](CCCCN)C(=O)N[C@H](CC(C)C)C(=O)N[C@H](CCCNC(=N)N)C(=O)N[C@H](CCCNC(=N)N)C(=O)N[C@H](Cc1ccc(O)cc1)C(=O)N[C@H](CC(C)C)C(=O)N[C@H](CCCNC(=N)N)C(N)=O)C(C)C [allD FP12-NH2]
antibacterial activity against gram-positive bacteria [1]: excellent antibacterial activity against gram-positive bacteria at the same level as melittin

CC(C)C[C@@H](NC(=O)[C@H](N)CCCCN)C(=O)N[C@H](CCCNC(=N)N)C(=O)N[C@@H](C(=O)N[C@H](CCCCN)C(=O)N[C@H](CC(C)C)C(=O)N[C@H](CCCNC(=N)N)C(=O)N[C@H](CCCNC(=N)N)C(=O)N[C@H](Cc1ccc(O)cc1)C(=O)N[C@H](CC(C)C)C(=O)N[C@H](CCCNC(=N)N)C(N)=O)C(C)C [allD FP13-NH2 (AcOH)]
secretion of IL-6 increased due to LPS [7]: significantly reduces the secretion of IL-6

LRLGVELKRYLR [FP6]
LPS binding affinity [8]: strong LPS binding affinity, which is equal to or higher than that of FP1
